# Test results from PubChem BioAssay (NCATS).
# The shares of active, inactive and inconclusive entries below differ from those in the screen. Potencies of inconclusive entries are doubtful fits and often do not repeat. Calls of active or inactive are those of the source. Calls come from the whole dose curve; as a rule, active = well fitted activation curve with a large enough effect; inconclusive = small, poorly fitted or top-dose-only effect, or another doubt; inactive = no such curve, though single readings can be large or run the other way.
# Target: Rap guanine nucleotide exchange factor 3 (Homo sapiens) (UniProt O95398)
# Assay: Counterscreen qHTS for agonist of cAMP-regulated guanine nucleotide exchange factor 3 (EPAC1) (AID 1645889); note: nearly all actives have a fitted effect of over 40% in size; for activation: % of control where 0% means no effect
# Settings: EPAC1 Rap1B-BODIPY-GDP exchange, fluorescence; activation: at 154 µM (top of the series) unless noted
# Procedure, shortened: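 Rap1B-BODIPY-GDP 250 nM + GDP 50 uM; cpds 7-pt, final 9.74 nM–152 uM (activator mode) or from 7.32 nM upwards (inhibitor mode); RT; FI 480/540 nm at 5 and 30 min, then ± cAMP, reread.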
# Potency is the fitted concentration of half-maximal effect.
Structure (SMILES),Potency,activation
CN1c2ccccc2C(C)(C)C12C=Nc1c(cc(N3CCOCC3)c3ccccc13)O2 (stereo not drawn),"inconclusive: 1 µM [activator, full curve, poor fit]",–
CCN1CCN(C2=CC3=CC(=C(C#N)C#N)CCC3CC2)CC1 (stereo not drawn),active: 10 µM,–
Cc1ccc2nc(-c3ccccc3)c(Cc3cccc(Cl)c3)n2c1,–,inconclusive: 28.6% [activator]
CN1c2ccsc2/C(=N/Nc2ccccc2)CS1(=O)=O,–,inconclusive: 43.1% [activator]
CC(C)CC(=NNC(=O)c1ccncc1)c1cc(Cl)ccc1O,"inconclusive: 63.1 µM [activator, partial curve, poor fit]",–
O=C1c2ccccc2S(=O)(=O)c2cc(N3CCC(C(=O)N4CCCCC4)CC3)ccc21,active: 56.2 µM,–
CCCC1C2CN(C(C)C)CC=C2C(C#N)=C(N)C1(C#N)C#N (stereo not drawn),"inconclusive: 2.51 µM [activator, full curve, poor fit]",–
O=C(Cc1ccccc1)Nn1c(O)c(/C=C2\C=Nc3ccccc32)sc1=S,active: 39.8 µM,–
CC(C)(C)C1COc2ccccc2N1C(=O)c1ccccc1Cl (stereo not drawn),inactive,–
CCOc1cc(/C=C2\CCCc3c2nc2ccccc2c3C(=O)O)ccc1OC,active: 100 µM,–
O=c1oc2cc(O)ccc2cc1-c1nc2ccccc2o1,active: 70.8 µM,–
COC(=O)c1sc(S(=O)(=O)N2CCCCC2C)c(C(=O)OC)c1C (stereo not drawn),inactive,–
CCOC(=O)/C(C#N)=C\c1ccc(N2CCN(C/C=C/c3ccccc3)CC2)cc1,active: 70.8 µM,–

# Three compounds from above, sorted by count of non-hydrogen atoms, rising.
Structure (SMILES),Potency,activation
CC(C)CC(=NNC(=O)c1ccncc1)c1cc(Cl)ccc1O,"inconclusive: 63.1 µM [activator, partial curve, poor fit]",–
CCOc1cc(/C=C2\CCCc3c2nc2ccccc2c3C(=O)O)ccc1OC,active: 100 µM,–
CCOC(=O)/C(C#N)=C\c1ccc(N2CCN(C/C=C/c3ccccc3)CC2)cc1,active: 70.8 µM,–
